Assay results taken from PMC7260190.

T1: UNC-40-RFP (C. elegans) (UniProt G5EF96)
T1 sequence: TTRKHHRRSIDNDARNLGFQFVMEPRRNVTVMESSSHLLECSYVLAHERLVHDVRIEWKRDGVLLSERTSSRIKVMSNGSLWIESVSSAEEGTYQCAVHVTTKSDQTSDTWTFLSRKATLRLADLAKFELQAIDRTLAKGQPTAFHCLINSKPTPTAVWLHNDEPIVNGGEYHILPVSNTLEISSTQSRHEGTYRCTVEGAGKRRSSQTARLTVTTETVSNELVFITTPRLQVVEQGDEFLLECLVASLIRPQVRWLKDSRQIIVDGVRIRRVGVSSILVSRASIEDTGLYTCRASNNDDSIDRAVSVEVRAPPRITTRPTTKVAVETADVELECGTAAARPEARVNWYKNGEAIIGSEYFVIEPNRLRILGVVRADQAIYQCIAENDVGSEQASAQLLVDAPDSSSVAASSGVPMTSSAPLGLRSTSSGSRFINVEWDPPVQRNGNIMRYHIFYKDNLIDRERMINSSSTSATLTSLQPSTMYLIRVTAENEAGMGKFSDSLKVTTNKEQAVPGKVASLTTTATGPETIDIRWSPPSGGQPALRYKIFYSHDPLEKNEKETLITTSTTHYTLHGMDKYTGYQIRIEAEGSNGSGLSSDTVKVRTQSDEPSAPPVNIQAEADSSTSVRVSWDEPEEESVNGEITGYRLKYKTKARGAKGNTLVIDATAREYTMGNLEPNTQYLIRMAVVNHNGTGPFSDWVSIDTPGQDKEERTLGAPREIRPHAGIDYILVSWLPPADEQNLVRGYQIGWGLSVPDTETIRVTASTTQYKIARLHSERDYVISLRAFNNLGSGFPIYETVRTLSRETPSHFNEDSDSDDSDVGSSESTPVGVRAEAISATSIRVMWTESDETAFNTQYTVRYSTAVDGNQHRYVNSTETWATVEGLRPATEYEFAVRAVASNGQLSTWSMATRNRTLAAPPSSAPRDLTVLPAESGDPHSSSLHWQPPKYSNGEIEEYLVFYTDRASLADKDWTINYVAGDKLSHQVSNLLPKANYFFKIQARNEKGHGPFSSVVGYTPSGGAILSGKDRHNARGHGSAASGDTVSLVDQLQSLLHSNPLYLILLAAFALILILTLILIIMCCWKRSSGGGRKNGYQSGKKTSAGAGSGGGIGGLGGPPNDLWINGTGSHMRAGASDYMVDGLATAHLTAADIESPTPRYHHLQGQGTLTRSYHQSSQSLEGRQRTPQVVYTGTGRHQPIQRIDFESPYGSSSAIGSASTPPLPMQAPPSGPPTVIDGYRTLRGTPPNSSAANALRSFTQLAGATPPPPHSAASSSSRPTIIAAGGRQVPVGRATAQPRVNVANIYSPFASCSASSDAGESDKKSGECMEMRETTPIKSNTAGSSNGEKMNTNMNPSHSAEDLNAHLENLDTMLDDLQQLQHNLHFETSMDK

T2: GST-LIN-2B (C. elegans) (UniProt P54936)
T2 sequence: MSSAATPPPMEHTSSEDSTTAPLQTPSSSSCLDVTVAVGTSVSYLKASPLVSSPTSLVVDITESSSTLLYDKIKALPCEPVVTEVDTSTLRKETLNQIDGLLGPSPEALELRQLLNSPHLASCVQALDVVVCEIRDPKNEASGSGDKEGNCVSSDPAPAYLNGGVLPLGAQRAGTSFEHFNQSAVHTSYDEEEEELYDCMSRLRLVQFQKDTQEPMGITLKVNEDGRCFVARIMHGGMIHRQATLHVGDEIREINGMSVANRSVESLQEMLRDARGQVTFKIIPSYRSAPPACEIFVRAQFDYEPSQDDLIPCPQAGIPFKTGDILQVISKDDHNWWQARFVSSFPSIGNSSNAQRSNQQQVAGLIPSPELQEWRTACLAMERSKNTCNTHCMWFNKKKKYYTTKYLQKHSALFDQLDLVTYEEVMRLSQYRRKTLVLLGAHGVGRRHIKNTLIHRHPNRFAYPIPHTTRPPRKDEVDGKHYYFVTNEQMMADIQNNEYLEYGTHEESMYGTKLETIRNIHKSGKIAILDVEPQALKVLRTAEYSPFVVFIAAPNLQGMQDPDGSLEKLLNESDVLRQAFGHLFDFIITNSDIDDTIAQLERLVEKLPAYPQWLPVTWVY

T3: NLG-1-GFP (C. elegans) (UniProt Q9XTG1)
T3 sequence: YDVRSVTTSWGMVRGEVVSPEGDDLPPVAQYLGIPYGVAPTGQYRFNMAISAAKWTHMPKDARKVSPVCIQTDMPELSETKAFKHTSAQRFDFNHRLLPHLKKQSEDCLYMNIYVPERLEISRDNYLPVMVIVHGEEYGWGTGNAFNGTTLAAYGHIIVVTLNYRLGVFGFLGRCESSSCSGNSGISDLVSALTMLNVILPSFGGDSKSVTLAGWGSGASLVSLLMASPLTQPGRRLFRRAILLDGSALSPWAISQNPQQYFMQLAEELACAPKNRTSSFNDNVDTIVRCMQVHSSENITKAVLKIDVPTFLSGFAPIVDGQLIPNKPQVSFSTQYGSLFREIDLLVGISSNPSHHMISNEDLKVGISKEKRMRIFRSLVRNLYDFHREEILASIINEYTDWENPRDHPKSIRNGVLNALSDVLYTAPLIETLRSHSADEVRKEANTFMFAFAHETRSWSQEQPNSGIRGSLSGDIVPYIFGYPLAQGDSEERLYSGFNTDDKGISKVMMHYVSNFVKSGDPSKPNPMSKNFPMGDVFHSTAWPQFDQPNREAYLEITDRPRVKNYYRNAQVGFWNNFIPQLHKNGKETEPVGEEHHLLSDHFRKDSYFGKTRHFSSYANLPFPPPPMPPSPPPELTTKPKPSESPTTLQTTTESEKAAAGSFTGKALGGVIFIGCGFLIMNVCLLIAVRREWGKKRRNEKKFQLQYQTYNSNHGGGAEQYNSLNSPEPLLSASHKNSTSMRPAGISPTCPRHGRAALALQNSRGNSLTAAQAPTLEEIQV


Experiments:
UNC-40-RFP (C. elegans) = biological target: T1, UNC-40-RFP (C. elegans); test: co-IP; whole worm extracts (2% Triton X-100 lysis, diluted to 0.2%); UNC-40-RFP precipitated with RFP-Trap-A beads overnight at 4 °C; GFP fusions detected by western blot
GST-LIN-2B (C. elegans) = biological target: T2, GST-LIN-2B (C. elegans); test: pull-down; GST fusion from E. coli lysate on glutathione-Sepharose 4B beads, incubated with in vitro translated HA-tagged protein 12 h at 4 °C; five washes in STE (10 mM Tris-Cl pH 8.0, 150 mM NaCl, 1 mM EDTA, 0.1% Tween-20); anti-HA immunoblot; only the target purified
NLG-1-GFP (C. elegans) = biological target: T3, NLG-1-GFP (C. elegans); test: co-IP; worm lysates of wild type and unc-40(0), lin-2(0) and frm-3(0) null mutants; NLG-1-GFP precipitated with anti-GFP nanobody Trap-A beads; RFP-UNC-49 detected by anti-RFP western blot
[1] = biological target: GST-tagged UNC-49B_loop (TM3-TM4 intracellular loop of UNC-49B fused to GST) (C. elegans); test: pull-down; GST fusion from E. coli lysate on glutathione-Sepharose 4B beads, incubated with in vitro translated HA-tagged protein 12 h at 4 °C; five washes in STE (10 mM Tris-Cl pH 8.0, 150 mM NaCl, 1 mM EDTA, 0.1% Tween-20); anti-HA immunoblot; only the target purified

Molecule | binding (UNC-40-RFP (C. elegans)) | binding (GST-LIN-2B (C. elegans)) | other results
HA-tagged FERM-FA domains of FRM-3 (C. elegans) (domain or fragment) | – | binds | –
RFP-UNC-49 (tagRFP-T-tagged GABAA receptor, knock-in unc-49(kr296)) (C. elegans) | – | – | binding (NLG-1-GFP (C. elegans)): binds
HA-tagged full-length LIN-2B (protein, UniProt P54936-2 1-620) MSSAATPPPMEHTSSEDSTTAPLQTPSSSSCLDVTVAVGTSVSYLKASPLVSSPTSLVVDITESSSTLLYDKIKALPCEPVVTEVDTSTLRKETLNQIDGLLGPSPEALELRQLLNSPHLASCVQALDVVVCEIRDPKNEASGSGDKEGNCVSSDPAPAYLNGGVLPLGAQRAGTSFEHFNQSAVHTSYDEEEEELYDCMSRLRLVQFQKDTQEPMGITLKVNEDGRCFVARIMHGGMIHRQATLHVGDEIREINGMSVANRSVESLQEMLRDARGQVTFKIIPSYRSAPPACEIFVRAQFDYEPSQDDLIPCPQAGIPFKTGDILQVISKDDHNWWQARFVSSFPSIGNSSNAQRSNQQQVAGLIPSPELQEWRTACLAMERSKNTCNTHCMWFNKKKKYYTTKYLQKHSALFDQLDLVTYEEVMRLSQYRRKTLVLLGAHGVGRRHIKNTLIHRHPNRFAYPIPHTTRPPRKDEVDGKHYYFVTNEQMMADIQNNEYLEYGTHEESMYGTKLETIRNIHKSGKIAILDVEPQALKVLRTAEYSPFVVFIAAPNLQGMQDPDGSLEKLLNESDVLRQAFGHLFDFIITNSDIDDTIAQLERLVEKLPAYPQWLPVTWVY | – | – | binding [1]: binds

Continued, in another order:

binding (UNC-40-RFP (C. elegans)) | binding (GST-LIN-2B (C. elegans)) | Molecule | other results
binds | – | FERM-FA-GFP (FERM-FA domains of FRM-3 fused to GFP) (C. elegans) (domain or fragment) | –
binds | – | FRM-3B-GFP full length (C. elegans) | –
– | binds | HA-UNC-49B_TM3-4 intracellular loop (C. elegans) (domain or fragment) | –

Results are given in words; binding and its absence hold for the method and conditions named. In cells and extracts the contact can be indirect. Binding calls can cover weak binding; strength is not graded here. For part of these data: Tags and fused reporters may be left off the sequences shown.
